Experimental data: PubChem BioAssay AID743454 (Peter MacCallum Cancer Centre, 2014)
Here is an unselected part of about 18,000 reagents tested. Over the whole deposit, 450 (2.5%) got an active call. 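Single biological run; no consistent viability z cut-off exists, so the class columns, not z-scores, define the calls.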

- Aim: 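Search for knock-downs that restore vorinostat killing in resistant colon cancer cells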 (primary screen)
- Cells: human HCT116-VR colon cancer cells, selected for vorinostat resistance
- Knock-down reagent: siRNA pool against human genes, 40 nM siRNA pool
- Timing: vorinostat for 24 h, read-out about 72 h after transfection
- Conditions: vorinostat at 2.5 µM final
- Read-out: 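Two measures, CellTiter-Fluor viability and luminescent caspase 3/7 activity, each as fold change against same-plate mock wells, mean of duplicates, then screen-wide robust z-score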
- Scale: viability robust z-score: higher = more viable cells than screen typical; caspase robust z-score: higher = more caspase 3/7 activity than screen typical
- Rule for the call: 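a knock-down is a hit when classed RV1 or RV2 for lowered viability, or CA1 or CA2 for caspase activation; those lethal without drug were dropped; hits were retested singly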

What is on record for UFSP1 (UFM1 specific peptidase 1)?
viability hit class: no change; caspase hit class: CA1 (caspase activation); viability robust z-score: -0.96; caspase robust z-score: 6.41; Call: active

With ZNF26 (zinc finger protein 26), what was measured?
viability hit class: no change; caspase hit class: no change; viability robust z-score: 0.23; caspase robust z-score: -0.82; Call: inactive

With FGFR3 (fibroblast growth factor receptor 3), what was measured?
viability hit class: no change; caspase hit class: no change; viability robust z-score: -0.79; caspase robust z-score: 2.79; Call: inactive

How did the screen score HSPBP1 (HSPA (Hsp70) binding protein 1)?
viability hit class: no change; caspase hit class: no change; viability robust z-score: 1.32; caspase robust z-score: -0.62; Call: inactive

Which result is listed for PSTPIP2 (proline-serine-threonine phosphatase interacting protein 2)?
viability hit class: no change; caspase hit class: no change; viability robust z-score: 0.76; caspase robust z-score: 0.92; Call: inactive

What is on record for METTL13 (methyltransferase 13, eEF1A N-terminus and K55)?
viability hit class: no change; caspase hit class: no change; viability robust z-score: -0.31; caspase robust z-score: 0.12; Call: inactive

Which result is listed for DHRS7 (dehydrogenase/reductase 7)?
viability hit class: no change; caspase hit class: no change; viability robust z-score: -0.49; caspase robust z-score: -0.32; Call: inactive

How did the screen score ABRAXAS1 (abraxas 1, BRCA1 A complex subunit)?
viability hit class: no change; caspase hit class: no change; viability robust z-score: -0.83; caspase robust z-score: 0.26; Call: inactive

Copied from the entries so far, 2 entries:
ZNF26 (zinc finger protein 26): viability hit class = no change; caspase hit class = no change; viability robust z-score = 0.23; caspase robust z-score = -0.82; Call = inactive
FGFR3 (fibroblast growth factor receptor 3): viability hit class = no change; caspase hit class = no change; viability robust z-score = -0.79; caspase robust z-score = 2.79; Call = inactive

The list goes on.
Which result is listed for FBXW4 (F-box and WD repeat domain containing 4)?
viability hit class: no change; caspase hit class: no change; viability robust z-score: -0.99; caspase robust z-score: -0.07; Call: inactive

Which result is listed for ZNG1A (Zn regulated GTPase metalloprotein activator 1A)?
viability hit class: no change; caspase hit class: no change; viability robust z-score: 0.85; caspase robust z-score: -0.82; Call: inactive

For MORC2 (MORC family CW-type zinc finger 2), what was measured?
viability hit class: no change; caspase hit class: no change; viability robust z-score: 1.67; caspase robust z-score: 0.51; Call: inactive

With HNRNPA1L2 (heterogeneous nuclear ribonucleoprotein A1 like 2), what does the deposit list?
viability hit class: no change; caspase hit class: no change; viability robust z-score: 1.02; caspase robust z-score: -0.24; Call: inactive
